In paper doi:10.1101/2023.07.14.548990:
No constants are given. Whether binding was seen depends on the method and setting. In cells and extracts the contact can be indirect. Some entries that bind do so weakly or less than the wild type.

Protein sequences, listed by entry. Tags and fused reporters are not part of them.
UniProt P08912: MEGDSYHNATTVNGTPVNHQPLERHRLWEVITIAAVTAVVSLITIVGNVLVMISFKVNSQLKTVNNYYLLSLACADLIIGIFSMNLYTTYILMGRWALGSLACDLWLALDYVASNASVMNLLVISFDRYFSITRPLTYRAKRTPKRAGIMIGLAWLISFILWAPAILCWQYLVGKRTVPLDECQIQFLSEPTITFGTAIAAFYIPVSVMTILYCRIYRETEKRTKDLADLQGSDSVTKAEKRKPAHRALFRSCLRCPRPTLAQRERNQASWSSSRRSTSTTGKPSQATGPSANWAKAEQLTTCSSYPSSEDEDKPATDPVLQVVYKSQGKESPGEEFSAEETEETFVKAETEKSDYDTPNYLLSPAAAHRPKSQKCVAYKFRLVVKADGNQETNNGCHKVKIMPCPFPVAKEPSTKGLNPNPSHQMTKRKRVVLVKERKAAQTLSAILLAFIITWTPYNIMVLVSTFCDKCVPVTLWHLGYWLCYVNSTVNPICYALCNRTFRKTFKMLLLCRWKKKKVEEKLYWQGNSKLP
UniProt P32120: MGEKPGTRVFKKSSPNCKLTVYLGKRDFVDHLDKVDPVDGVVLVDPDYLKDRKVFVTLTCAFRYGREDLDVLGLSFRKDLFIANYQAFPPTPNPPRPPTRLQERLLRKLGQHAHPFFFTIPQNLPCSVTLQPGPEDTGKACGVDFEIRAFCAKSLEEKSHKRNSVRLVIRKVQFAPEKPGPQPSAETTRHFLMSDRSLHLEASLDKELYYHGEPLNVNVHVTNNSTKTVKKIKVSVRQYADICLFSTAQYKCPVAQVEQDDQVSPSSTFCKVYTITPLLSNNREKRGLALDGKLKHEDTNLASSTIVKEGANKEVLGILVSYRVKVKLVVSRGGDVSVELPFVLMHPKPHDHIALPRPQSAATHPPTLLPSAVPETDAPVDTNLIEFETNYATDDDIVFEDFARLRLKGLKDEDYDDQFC

Molecular target: muscarinic M5 acetylcholine receptor-NanoLuciferase (human) (UniProt P08912)
Assay: FRET or BRET

Halo-Tag-β-arrestin2 (from UniProt P32120 1-420)
binding: binds
